In the supplement of paper PMC12823440, “Inhibitors supercharge kinase turnover through native proteolytic circuits” (Nature, 2025):
The other results are listed elsewhere or left out. Hit calls seldom repeat between salt and free forms of one compound.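 In K562 cells expressing nanoluciferase-fused kinases, luminescence was recorded at 4 h intervals between 2 and 18 h, normalized as percent of control with DMSO at 100% and a positive control at 0%. A significant (2 sigma) signal drop marks a time point as decreased. The authors' rule for a hit is not shown and takes in more than the number of time points.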

Amino acid sequences for entries named in this document (tags omitted). A change or cut given only in a name is not applied to a line headed by its entry.
UniProt P50613: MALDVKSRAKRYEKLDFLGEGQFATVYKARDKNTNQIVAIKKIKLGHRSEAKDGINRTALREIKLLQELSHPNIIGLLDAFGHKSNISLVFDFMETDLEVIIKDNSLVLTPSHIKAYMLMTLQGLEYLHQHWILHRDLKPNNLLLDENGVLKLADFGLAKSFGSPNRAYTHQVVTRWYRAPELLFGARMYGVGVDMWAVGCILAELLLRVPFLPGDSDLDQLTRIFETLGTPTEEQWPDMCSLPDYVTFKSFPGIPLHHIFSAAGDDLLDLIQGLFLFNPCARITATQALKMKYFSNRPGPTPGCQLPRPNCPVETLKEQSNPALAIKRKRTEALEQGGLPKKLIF
UniProt P50750, whole entry: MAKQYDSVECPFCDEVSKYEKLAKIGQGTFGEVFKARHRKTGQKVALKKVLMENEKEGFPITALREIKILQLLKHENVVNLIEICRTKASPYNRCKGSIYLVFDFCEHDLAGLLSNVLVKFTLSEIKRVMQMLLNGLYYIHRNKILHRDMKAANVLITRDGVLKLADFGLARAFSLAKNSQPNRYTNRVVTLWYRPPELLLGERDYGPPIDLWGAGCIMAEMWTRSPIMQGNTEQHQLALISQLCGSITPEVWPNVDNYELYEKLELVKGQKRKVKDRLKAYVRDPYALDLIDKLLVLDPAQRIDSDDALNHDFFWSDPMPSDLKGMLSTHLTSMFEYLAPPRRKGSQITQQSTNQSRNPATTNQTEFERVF
UniProt O96017, whole entry: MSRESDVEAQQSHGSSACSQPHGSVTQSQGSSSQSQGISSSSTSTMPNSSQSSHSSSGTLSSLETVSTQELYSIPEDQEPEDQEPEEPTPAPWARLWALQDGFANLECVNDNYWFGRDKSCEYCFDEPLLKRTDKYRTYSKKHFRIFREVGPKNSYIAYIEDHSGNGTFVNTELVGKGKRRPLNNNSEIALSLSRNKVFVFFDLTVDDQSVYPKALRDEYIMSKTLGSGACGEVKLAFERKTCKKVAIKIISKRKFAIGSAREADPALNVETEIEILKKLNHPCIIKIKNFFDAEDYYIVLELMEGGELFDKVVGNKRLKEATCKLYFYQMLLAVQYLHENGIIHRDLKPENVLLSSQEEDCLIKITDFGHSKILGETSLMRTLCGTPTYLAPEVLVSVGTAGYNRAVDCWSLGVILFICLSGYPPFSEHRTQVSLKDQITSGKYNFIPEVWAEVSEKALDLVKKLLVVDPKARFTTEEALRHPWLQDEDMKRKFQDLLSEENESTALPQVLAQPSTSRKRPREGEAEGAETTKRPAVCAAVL
UniProt P41240: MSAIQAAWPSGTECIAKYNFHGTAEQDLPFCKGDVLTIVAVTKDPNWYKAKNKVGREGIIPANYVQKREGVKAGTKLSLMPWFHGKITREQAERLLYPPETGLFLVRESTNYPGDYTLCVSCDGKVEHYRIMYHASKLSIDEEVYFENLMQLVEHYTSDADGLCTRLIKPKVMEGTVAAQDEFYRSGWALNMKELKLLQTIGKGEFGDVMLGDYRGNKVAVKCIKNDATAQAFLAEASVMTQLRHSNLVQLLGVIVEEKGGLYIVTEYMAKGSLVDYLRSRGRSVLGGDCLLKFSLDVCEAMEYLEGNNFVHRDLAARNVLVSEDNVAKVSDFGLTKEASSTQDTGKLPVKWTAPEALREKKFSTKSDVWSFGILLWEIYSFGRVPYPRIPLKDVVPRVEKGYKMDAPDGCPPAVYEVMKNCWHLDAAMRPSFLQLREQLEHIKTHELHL
UniProt P48730: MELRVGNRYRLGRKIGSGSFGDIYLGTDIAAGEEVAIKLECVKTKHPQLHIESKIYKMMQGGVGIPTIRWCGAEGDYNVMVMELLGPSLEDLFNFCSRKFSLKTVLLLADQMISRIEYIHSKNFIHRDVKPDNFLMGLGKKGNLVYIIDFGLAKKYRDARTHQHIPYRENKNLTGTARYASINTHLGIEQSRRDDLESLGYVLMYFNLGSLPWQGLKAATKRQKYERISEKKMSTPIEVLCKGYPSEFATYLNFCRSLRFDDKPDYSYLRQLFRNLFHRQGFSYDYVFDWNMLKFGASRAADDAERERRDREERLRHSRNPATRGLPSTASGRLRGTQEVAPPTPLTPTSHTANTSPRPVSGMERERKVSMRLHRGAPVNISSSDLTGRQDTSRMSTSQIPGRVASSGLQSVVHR
UniProt Q08345: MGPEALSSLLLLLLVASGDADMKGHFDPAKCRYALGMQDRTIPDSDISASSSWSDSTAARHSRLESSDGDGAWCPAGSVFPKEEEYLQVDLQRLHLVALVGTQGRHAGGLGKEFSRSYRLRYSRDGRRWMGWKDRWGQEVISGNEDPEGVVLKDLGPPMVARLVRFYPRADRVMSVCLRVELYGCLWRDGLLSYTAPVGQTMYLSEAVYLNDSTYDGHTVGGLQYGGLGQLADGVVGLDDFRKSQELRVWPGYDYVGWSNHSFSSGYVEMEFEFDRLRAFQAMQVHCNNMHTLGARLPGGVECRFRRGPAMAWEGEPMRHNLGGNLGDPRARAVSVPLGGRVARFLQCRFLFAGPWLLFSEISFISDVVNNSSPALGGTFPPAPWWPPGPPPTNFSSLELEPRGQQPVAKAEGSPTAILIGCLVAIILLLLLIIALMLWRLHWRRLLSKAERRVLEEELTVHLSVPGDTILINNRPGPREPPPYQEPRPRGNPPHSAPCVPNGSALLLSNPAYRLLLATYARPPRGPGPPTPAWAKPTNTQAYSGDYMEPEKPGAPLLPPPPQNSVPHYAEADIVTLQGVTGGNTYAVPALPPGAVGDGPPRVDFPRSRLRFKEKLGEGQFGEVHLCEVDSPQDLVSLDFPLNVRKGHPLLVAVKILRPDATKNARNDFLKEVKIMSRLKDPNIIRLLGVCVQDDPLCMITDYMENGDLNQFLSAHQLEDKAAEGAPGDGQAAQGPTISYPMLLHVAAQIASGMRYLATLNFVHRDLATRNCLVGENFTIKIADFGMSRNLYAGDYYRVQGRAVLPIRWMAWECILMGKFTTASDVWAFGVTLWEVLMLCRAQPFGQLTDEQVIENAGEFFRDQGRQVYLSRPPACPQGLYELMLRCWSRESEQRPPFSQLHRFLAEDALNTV
UniProt Q9Y463, whole entry, looked up: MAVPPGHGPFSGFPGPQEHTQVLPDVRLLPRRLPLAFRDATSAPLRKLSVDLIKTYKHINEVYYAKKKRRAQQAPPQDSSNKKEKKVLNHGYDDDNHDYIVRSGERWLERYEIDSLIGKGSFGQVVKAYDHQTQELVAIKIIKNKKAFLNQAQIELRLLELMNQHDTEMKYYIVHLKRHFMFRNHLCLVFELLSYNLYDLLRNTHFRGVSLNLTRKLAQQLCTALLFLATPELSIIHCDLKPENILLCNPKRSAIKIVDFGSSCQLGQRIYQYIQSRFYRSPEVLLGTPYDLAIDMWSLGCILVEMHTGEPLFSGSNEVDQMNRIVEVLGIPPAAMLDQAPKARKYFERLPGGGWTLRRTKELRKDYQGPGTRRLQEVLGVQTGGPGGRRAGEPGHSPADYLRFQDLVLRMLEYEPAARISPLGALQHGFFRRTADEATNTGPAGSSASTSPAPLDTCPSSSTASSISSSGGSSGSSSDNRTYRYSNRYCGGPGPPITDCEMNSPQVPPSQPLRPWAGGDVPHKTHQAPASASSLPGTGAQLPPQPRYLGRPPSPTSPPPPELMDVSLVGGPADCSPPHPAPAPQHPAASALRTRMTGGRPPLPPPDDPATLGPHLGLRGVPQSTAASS
UniProt Q92630: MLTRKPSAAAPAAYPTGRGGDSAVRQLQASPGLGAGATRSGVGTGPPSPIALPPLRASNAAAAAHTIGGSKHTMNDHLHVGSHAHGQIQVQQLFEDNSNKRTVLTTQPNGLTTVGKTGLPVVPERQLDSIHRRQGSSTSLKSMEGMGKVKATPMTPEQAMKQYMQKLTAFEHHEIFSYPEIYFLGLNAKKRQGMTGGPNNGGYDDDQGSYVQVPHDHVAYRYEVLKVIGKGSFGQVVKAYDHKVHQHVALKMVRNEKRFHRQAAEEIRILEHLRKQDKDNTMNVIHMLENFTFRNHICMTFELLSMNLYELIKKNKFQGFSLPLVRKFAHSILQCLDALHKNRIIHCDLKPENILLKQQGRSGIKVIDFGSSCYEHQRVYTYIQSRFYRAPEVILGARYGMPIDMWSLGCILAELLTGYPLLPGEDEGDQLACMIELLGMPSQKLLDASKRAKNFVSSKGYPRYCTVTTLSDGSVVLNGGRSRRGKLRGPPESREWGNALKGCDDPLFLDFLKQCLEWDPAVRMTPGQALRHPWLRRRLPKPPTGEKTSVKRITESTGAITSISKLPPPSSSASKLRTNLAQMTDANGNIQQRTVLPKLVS
UniProt P29317, whole entry: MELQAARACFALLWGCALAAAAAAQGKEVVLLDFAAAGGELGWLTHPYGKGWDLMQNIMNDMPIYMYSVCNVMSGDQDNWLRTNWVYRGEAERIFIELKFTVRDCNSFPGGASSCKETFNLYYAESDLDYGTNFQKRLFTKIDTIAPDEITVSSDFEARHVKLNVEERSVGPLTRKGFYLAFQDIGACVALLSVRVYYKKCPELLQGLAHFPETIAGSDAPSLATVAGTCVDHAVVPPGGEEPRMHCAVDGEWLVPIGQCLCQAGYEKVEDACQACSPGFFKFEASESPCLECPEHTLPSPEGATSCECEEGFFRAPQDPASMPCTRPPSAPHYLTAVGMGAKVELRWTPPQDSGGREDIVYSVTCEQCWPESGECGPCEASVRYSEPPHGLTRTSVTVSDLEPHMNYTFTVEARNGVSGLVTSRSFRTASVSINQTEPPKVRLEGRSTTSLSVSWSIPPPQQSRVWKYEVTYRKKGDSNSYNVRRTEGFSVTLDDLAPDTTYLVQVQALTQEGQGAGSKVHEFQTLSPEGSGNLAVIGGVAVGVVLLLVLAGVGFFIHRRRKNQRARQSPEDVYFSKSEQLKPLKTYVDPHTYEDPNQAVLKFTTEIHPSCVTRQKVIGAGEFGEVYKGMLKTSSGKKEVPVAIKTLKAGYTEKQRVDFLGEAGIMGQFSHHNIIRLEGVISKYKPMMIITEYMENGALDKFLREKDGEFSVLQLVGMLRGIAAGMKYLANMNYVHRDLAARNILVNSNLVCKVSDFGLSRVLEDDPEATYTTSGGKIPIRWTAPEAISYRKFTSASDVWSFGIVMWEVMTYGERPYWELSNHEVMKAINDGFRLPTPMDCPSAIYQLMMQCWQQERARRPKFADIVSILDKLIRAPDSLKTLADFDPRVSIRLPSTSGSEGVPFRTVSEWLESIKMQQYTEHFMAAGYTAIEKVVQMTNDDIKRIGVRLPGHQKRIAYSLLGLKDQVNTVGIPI
UniProt P21860, whole entry: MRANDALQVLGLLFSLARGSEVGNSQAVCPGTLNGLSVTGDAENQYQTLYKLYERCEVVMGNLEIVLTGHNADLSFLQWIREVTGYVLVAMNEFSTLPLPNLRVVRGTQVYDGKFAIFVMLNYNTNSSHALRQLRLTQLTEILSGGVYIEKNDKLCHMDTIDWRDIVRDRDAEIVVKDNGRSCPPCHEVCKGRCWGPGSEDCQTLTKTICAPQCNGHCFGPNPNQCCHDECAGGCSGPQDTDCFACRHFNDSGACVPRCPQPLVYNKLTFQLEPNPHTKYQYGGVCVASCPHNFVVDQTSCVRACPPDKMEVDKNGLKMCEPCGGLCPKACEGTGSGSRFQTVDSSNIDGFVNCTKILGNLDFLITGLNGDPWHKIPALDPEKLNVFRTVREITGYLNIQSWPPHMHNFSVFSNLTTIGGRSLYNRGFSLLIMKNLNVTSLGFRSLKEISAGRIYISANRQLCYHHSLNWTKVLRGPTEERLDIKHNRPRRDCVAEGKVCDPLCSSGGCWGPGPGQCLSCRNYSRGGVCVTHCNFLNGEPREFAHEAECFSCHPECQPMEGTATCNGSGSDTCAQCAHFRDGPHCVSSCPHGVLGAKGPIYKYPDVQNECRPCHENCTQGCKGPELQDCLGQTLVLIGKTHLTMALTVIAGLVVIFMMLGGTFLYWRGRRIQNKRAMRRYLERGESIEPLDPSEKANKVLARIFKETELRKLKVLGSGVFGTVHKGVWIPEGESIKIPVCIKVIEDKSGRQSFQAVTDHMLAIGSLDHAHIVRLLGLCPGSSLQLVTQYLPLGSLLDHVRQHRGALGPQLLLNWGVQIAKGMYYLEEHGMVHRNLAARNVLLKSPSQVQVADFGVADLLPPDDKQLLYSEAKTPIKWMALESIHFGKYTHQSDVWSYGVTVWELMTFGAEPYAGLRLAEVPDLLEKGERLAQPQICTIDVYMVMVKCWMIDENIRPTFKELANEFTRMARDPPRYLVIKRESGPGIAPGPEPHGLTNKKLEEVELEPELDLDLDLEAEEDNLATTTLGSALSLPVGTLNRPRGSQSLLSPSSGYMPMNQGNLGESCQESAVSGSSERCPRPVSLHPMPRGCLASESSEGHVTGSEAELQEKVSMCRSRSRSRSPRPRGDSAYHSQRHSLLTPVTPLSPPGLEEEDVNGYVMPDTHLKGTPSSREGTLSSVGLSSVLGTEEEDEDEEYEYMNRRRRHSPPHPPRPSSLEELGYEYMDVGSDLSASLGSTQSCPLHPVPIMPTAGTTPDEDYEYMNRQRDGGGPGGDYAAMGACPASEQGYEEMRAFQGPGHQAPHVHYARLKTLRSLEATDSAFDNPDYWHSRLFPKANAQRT

Experiments:
Test in all cases: kinase-Nluc reporter destabilization hit call (1 = scored as downregulated) (binary); higher = compound decreases kinase abundance
Conditions in all cases: K562; 2-18 h
[1] = molecular target: CDK7 (UniProt P50613)
[2] = molecular target: CDK9 (UniProt P50750)
[3] = molecular target: CHEK2 (UniProt O96017)
[4] = molecular target: CSF1R (UniProt P07333)
[5] = molecular target: CSK (UniProt P41240)
[6] = molecular target: CSNK1A1 (UniProt P48729)
[7] = molecular target: CSNK1D (UniProt P48730)
[8] = molecular target: DDR1 (UniProt Q08345)
[9] = molecular target: DYRK1B (UniProt Q9Y463)
[10] = molecular target: DYRK2 (UniProt Q92630)
[11] = molecular target: EGFR (UniProt P00533)
[12] = molecular target: EGFR_G719S (UniProt P00533)
[13] = molecular target: EGFR_G719S_T790M (UniProt P00533)
[14] = molecular target: EGFR_L718V (UniProt P00533)
[15] = molecular target: EGFR_L858R (UniProt P00533)
[16] = molecular target: EGFR_L861Q (UniProt P00533)
[17] = molecular target: EGFR_T790M (UniProt P00533)
[18] = molecular target: EPHA2 (UniProt P29317)
[19] = molecular target: ERBB3 (UniProt P21860)
[20] = molecular target: ERBB4_R711C (clone: ERBB4_mut) (UniProt Q15303)

Measured: kinase-Nluc reporter destabilization hit call

O=C1c2cccc(O)c2C(=O)c2c(O)cccc21 [Danthron] (10 µM)
inactive: [1] 0 | [2] 0 | [3] 0 | [4] 0 | [5] 0 | [6] 0 | [7] 0 | [8] 0 | [9] 0 | [10] 0 | [11] 0 | [12] 0 | [13] 0 | [14] 0 | [15] 0 | [16] 0 | [17] 0 | [18] 0 | [19] 0 | [20] 0

CC[C@H](C)[C@H](NC(=O)[C@H](CCCCN)NC(=O)[C@H](CC(C)C)NC(=O)[C@@H]1CCCN1C(=O)[C@H](CCC(=O)O)NC(=O)[C@H](Cc1ccc(O)cc1)NC(=O)[C@@H](NC(=O)[C@H](CO)NC(=O)CNC(=O)[C@H](CO)NC(=O)[C@H](CCCN=C(N)N)NC(=O)[C@H](CCCCN)NC(=O)[C@@H](NC(=O)[C@@H](N)CCCN=C(N)N)[C@@H](C)O)C(C)C)C(=O)O [Malantide] (10 µM)
inactive: [1] 0 | [2] 0 | [3] 0 | [4] 0 | [5] 0 | [6] 0 | [7] 0 | [8] 0 | [9] 0 | [10] 0 | [11] 0 | [12] 0 | [13] 0 | [14] 0 | [15] 0 | [16] 0 | [17] 0 | [18] 0 | [19] 0 | [20] 0

Cc1ccc(CNC(=O)N2CCC[C@]3(CCN(Cc4ccc(Cl)c(Cl)c4)C3)C2)cc1 (10 µM)
inactive: [1] 0 | [2] 0 | [3] 0 | [4] 0 | [5] 0 | [6] 0 | [7] 0 | [8] 0 | [9] 0 | [10] 0 | [11] 0 | [12] 0 | [13] 0 | [14] 0 | [15] 0 | [16] 0 | [17] 0 | [18] 0 | [19] 0 | [20] 0

COc1ccc(COc2cc3oc(=O)c4cc(C(C)O)ccc4c3cc2OC)cc1 (stereo not given) [Palomid 529] (2.5 µM)
inactive: [1] 0 | [2] 0 | [3] 0 | [4] 0 | [5] 0 | [6] 0 | [7] 0 | [8] 0 | [9] 0 | [10] 0 | [11] 0 | [12] 0 | [13] 0 | [14] 0 | [15] 0 | [16] 0 | [17] 0 | [18] 0 | [19] 0 | [20] 0

COc1cccc(Nc2ncnn3ccc(CN4CC[C@@H](N)[C@H](O)C4)c23)c1 (2.5 µM)
inactive: [1] 0 | [2] 0 | [3] 0 | [4] 0 | [5] 0 | [6] 0 | [7] 0 | [8] 0 | [9] 0 | [10] 0 | [11] 0 | [12] 0 | [13] 0 | [14] 0 | [15] 0 | [16] 0 | [17] 0 | [18] 0 | [19] 0 | [20] 0

C[C@@H]1CN(Cc2cn[nH]c2-c2ccc(C#N)cc2)CCN1c1ccc(C(F)(F)F)cn1 (2.5 µM)
inactive: [1] 0 | [2] 0 | [3] 0 | [4] 0 | [5] 0 | [6] 0 | [7] 0 | [8] 0 | [9] 0 | [10] 0 | [11] 0 | [12] 0 | [13] 0 | [14] 0 | [15] 0 | [16] 0 | [17] 0 | [18] 0 | [19] 0 | [20] 0

CN(C)CCCn1cc(C2=C(c3c[nH]c4ccccc34)C(=O)NC2=O)c2ccccc21 [Bisindolylmaleimide I] (2.5 µM)
inactive: [1] 0 | [2] 0 | [3] 0 | [4] 0 | [5] 0 | [6] 0 | [7] 0 | [8] 0 | [9] 0 | [10] 0 | [11] 0 | [12] 0 | [13] 0 | [14] 0 | [15] 0 | [16] 0 | [17] 0 | [18] 0 | [19] 0 | [20] 0

O=c1cc(-c2ccc(O)cc2)oc2cc(O)c(O)c(O)c12 [Scutellarein] (10 µM)
inactive: [1] 0 | [2] 0 | [3] 0 | [4] 0 | [5] 0 | [6] 0 | [7] 0 | [8] 0 | [9] 0 | [10] 0 | [11] 0 | [12] 0 | [13] 0 | [14] 0 | [15] 0 | [16] 0 | [17] 0 | [18] 0 | [19] 0 | [20] 0

N#C/C(=C\c1ccc[nH]1)c1ccc(Cl)c(Cl)c1 (2.5 µM)
inactive: [1] 0 | [2] 0 | [3] 0 | [4] 0 | [5] 0 | [6] 0 | [7] 0 | [8] 0 | [9] 0 | [10] 0 | [11] 0 | [12] 0 | [13] 0 | [14] 0 | [15] 0 | [16] 0 | [17] 0 | [18] 0 | [19] 0 | [20] 0

Cc1cccc(Cn2nc(C)c3c(NC(=O)c4csc5c(N)ncnc45)cccc32)n1 (10 µM)
inactive: [1] 0 | [2] 0 | [3] 0 | [4] 0 | [5] 0 | [6] 0 | [7] 0 | [8] 0 | [9] 0 | [10] 0 | [11] 0 | [12] 0 | [13] 0 | [14] 0 | [15] 0 | [16] 0 | [17] 0 | [18] 0 | [19] 0 | [20] 0

CC(C)(C)S(=O)(=O)c1cc2c(Nc3ccc4scnc4c3)ccnc2cc1OCCOCCOCCOCCOCC(=O)Nc1cccc2c1CN(C1CCC(=O)NC1=O)C2=O (stereo not given) [PROTAC RIPK degrader-6] (10 µM)
inactive: [1] 0 | [2] 0 | [3] 0 | [4] 0 | [5] 0 | [6] 0 | [7] 0 | [8] 0 | [9] 0 | [10] 0 | [11] 0 | [12] 0 | [13] 0 | [14] 0 | [15] 0 | [16] 0 | [17] 0 | [18] 0 | [19] 0 | [20] 0

COc1cc2nccc(Oc3ccc(NC(=O)Nc4ccc(F)cc4F)c(F)c3)c2cc1OC (10 µM)
inactive: [1] 0 | [2] 0 | [3] 0 | [4] 0 | [5] 0 | [6] 0 | [7] 0 | [8] 0 | [9] 0 | [10] 0 | [11] 0 | [12] 0 | [13] 0 | [14] 0 | [15] 0 | [16] 0 | [17] 0 | [18] 0 | [19] 0 | [20] 0

CC(=O)Nc1nc(C)c(-c2cc3c(c(S(C)(=O)=O)c2)C(=O)N([C@@H](C)C2CC2)C3)s1 (2.5 µM)
inactive: [1] 0 | [2] 0 | [3] 0 | [4] 0 | [5] 0 | [6] 0 | [7] 0 | [8] 0 | [9] 0 | [10] 0 | [11] 0 | [12] 0 | [13] 0 | [14] 0 | [15] 0 | [16] 0 | [17] 0 | [18] 0 | [19] 0 | [20] 0

Cc1ccc(-c2csc(Cn3nc(CC4OCCCO4)c4ccccc4c3=O)n2)cc1 (10 µM)
inactive: [1] 0 | [2] 0 | [3] 0 | [4] 0 | [5] 0 | [6] 0 | [7] 0 | [8] 0 | [9] 0 | [10] 0 | [11] 0 | [12] 0 | [13] 0 | [14] 0 | [15] 0 | [16] 0 | [17] 0 | [18] 0 | [19] 0 | [20] 0

O=C1NC(=O)C(c2ccccc2[N+](=O)[O-])=C1Nc1ccc(O)c(Cl)c1 (10 µM)
inactive: [1] 0 | [2] 0 | [3] 0 | [4] 0 | [5] 0 | [6] 0 | [7] 0 | [8] 0 | [9] 0 | [10] 0 | [11] 0 | [12] 0 | [13] 0 | [14] 0 | [15] 0 | [16] 0 | [17] 0 | [18] 0 | [19] 0 | [20] 0

O=c1cc(-c2ccc(O)cc2)oc2cc(O)c([C@@H]3O[C@H](CO)[C@@H](O)[C@H](O)[C@H]3O)c(O)c12 [Isovitexin] (10 µM)
inactive: [1] 0 | [2] 0 | [3] 0 | [4] 0 | [5] 0 | [6] 0 | [7] 0 | [8] 0 | [9] 0 | [10] 0 | [11] 0 | [12] 0 | [13] 0 | [14] 0 | [15] 0 | [16] 0 | [17] 0 | [18] 0 | [19] 0 | [20] 0
